The text below walks through data of publication PMC8834516.

Results are given in words; binding and its absence hold for the method and conditions named. Binding seen in cells or lysates may run through a third protein. A yes stands for co-enrichment or nearness to the bait. Other partners may have been found.

For the assay, the target named is T1, Transglutaminase-2 (mouse (endogenous in mouse brain)) (UniProt P21981).
T1 sequence: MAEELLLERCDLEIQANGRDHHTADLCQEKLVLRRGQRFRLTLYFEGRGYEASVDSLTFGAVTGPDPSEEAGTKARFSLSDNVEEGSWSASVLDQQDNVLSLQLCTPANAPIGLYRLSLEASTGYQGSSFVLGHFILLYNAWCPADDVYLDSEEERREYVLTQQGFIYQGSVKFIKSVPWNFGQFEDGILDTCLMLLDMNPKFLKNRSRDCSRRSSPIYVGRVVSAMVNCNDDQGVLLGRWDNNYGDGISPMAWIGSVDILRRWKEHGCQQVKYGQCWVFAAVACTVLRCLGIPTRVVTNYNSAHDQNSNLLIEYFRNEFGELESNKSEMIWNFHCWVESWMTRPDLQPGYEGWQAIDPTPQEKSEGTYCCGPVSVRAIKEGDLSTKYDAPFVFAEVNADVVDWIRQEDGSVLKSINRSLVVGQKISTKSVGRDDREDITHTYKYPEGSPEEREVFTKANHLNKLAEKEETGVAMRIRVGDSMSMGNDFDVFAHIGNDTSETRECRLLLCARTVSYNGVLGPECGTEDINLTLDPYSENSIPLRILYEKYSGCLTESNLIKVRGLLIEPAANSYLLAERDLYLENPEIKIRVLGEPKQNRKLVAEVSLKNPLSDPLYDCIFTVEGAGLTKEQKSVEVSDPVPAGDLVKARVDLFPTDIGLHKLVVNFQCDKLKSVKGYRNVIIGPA
The assay can be described thus: affinity purification with mass spectrometry; TG2 immunoprecipitated from total brain homogenates of 18-month-old WT and APP23 mice with anti-TG2 antibody IA12 crosslinked to protein A/G magnetic beads, 22 h at 4 °C; IP lysis buffer 25 mM Tris pH 7.4, 150 mM NaCl, 1 mM EDTA, 1% NP40, 5% glycerol; on-bead trypsin digest, SWATH MS; TG2−/− cohorts as background, z-test p ≤ 0.05, n = 5 per cohort.

B1: LanC-like protein 2 (protein, UniProt Q9JJK2 1-450)
chain: MGETMSKRLKFHLGEAEMEERSFPNPFPDYEAAASAAGLAAGSAEETGRVCPLPTTEDPGLPFHPNGKIVPNFIKRIQTKIKDLLQQMEEGLKTADPHDCSAYTGWTGIALLYLQLYRVTGDQTYLLRSLDYVKRTLRNLSGRRVTFLCGDAGPLAVGAVIYHKLKSECESQECITKLLQMHRTIVCQESELPDELLYGRAGYLYALLYLNTEIGPGTVGETAIKEVVSAIIESGKSLSREERKSERCPLLYQWHRKQYVGAAHGMAGIYYMLMQPEAKVDQETLTEMVKPSIDYVRHKKFRSGNYPSSLSNETDRLVHWCHGAPGVIHVLLQAYQVFKEEKYLKEAMECSDVIWQRGLLRKGYGICHGTSGNGYSFLSLYRLTQDKKYLYRACKFAEWCLDYGAHGCRIPDRPYSLFEGMAGAVHFLSDILVPETARFPAFELGFLQKD
For the molecule B1, the binding result is listed as “binds”.

B2: Protein disulfide-isomerase A6 (protein, UniProt Q922R8 20-440)
chain: LYSSSDDVIELTPSNFNREVIQSDGLWLVEFYAPWCGHCQRLTPEWKKAATALKDVVKVGAVNADKHQSLGGQYGVQGFPTIKIFGANKNKPEDYQGGRTGEAIVDAALSALRQLVKDRLGGRSGGYSSGKQGRGDSSSKKDVVELTDDTFDKNVLDSEDVWMVEFYAPWCGHCKNLEPEWAAAATEVKEQTKGKVKLAAVDATVNQVLASRYGIKGFPTIKIFQKGESPVDYDGGRTRSDIVSRALDLFSDNAPPPELLEIINEDIAKKTCEEHQLCVVAVLPHILDTGAAGRNSYLEVLLKLADKYKKKMWGWLWTEAGAQYELENALGIGGFGYPAMAAINARKMKFALLKGSFSEQGINEFLRELSFGRGSTAPVGGGSFPTITPREPWDGKDGELPVEDDIDLSDVELDDLEKDEL
For B2, the binding result is on record as “binds”.

B3: Rho GDP-dissociation inhibitor 1 (protein, UniProt Q99PT1 1-204)
chain: MAEQEPTAEQLAQIAAENEEDEHSVNYKPPAQKSIQEIQELDKDDESLRKYKEALLGRVAVSADPNVPNVIVTRLTLVCSTAPGPLELDLTGDLESFKKQSFVLKEGVEYRIKISFRVNREIVSGMKYIQHTYRKGVKIDKTDYMVGSYGPRAEEYEFLTPMEEAPKGMLARGSYNIKSRFTDDDKTDHLSWEWNLTIKKEWKD
On to B3, for which the binding entry is “binds”.

B4: Cell adhesion molecule 2 (protein, UniProt Q8BLQ9 25-435)
chain: QFPLTQNVTVVEGGTAILTCRVDQNDNTSLQWSNPAQQTLYFDDKKALRDNRIELVRASWHELSISVSDVSLSDEGQYTCSLFTMPVKTSKAYLTVLGVPEKPQISGFSSPVMEGDLMQLTCKTSGSKPAADIRWFKNDKEIKDVKYLKEEDANRKTFTVSSTLDFRVDRSDDGVAVICRVDHESLNATPQVAMQVLEIHYTPSVKIIPSTPFPQEGQALTLTCESKGKPLPEPVLWTKDGAELPDPDRMVVSGRELNILFLNKTDNGTYRCEATNTIGQSSAEYVLIVHDVPNTLLPTTIIPSLTTAPVTTSVTITTSPSTSASSSSRRDPNSLAGQNGPDHALIGGIVAVVVFVTLCSIFLLGRYLARHKGTYLTNEAKGAEDAPDADTAIINAEGSQVNAEEKKEYFI
Regarding B4, the binding entry is “binds”.

B5: Neuronal pentraxin-1 (protein, UniProt Q62443 23-432)
chain: QDFGPTRFICTSVPVDADMCAASVAAGGAEELRSNVLQLRETVLQQKETILSQKETIRELTTKLGRCESQSTLDSGPGEARSGGGRKQPGSGKNTMGDLSRTPAAETLSQLGQTLQSLKTRLENLEQYSRLNSSSQTNSLKDLLQSKIDDLERQVLSRVNTLEEGKGGPKNDTEERAKIESALTSLHQRISELEKGQKDNRPGDKFQLTFPLRTNYMYAKVKKSLPEMYAFTVCMWLKSSAAPGVGTPFSYAVPGQANELVLIEWGNNPMEILINDKVAKLPFVINDGKWHHICVTWTTRDGVWEAYQDGTQGGNGENLAPYHPIKPQGVLVLGQEQDTLGGGFDATQAFVGELAHFNIWDRKLTPGEVYNLATCSSKALSGNVIAWAESQIEIFGGATKWTFEACRQIN
Take B5: the binding entry was “binds”.

B6: Lysophosphatidylcholine acyltransferase 1 (protein, UniProt Q3TFD2 1-534)
chain: MRLRGRGPRAAPSSSSGAGDARRLAPPGRNPFVHELRLSALQKAQVAFMTLTLFPIRLLFAAFMMLLAWPFALLASLGPPDKEPEQPLALWRKVVDFLLKAIMRTMWFAGGFHRVAVKGRQALPTEAAILTLAPHSSYFDAIPVTMTMSSIVMKAESRDIPIWGTLIRYIRPVFVSRSDQDSRRKTVEEIKRRAQSNGKWPQIMIFPEGTCTNRTCLITFKPGAFIPGVPVQPVVLRYPNKLDTITWTWQGPGALKILWLTLCQFQNQVEIEFLPVYCPSEEEKRNPALYASNVRRVMAKALGVSVTDYTFEDCQLALAEGQLRLPADTCLLEFARLVRGLGLKPENLEKDLDKYSESARMKRGEKIRLPEFAAYLEVPVSDALEDMFSLFDESGGGEIDLREYVVALSVVCRPSQTLATIQLAFKMYGSPEDGSIDEANLSCILKTALGVSELTVTDLFQAIDQEDKGRITFDDFCGFAEMYPDYAEDYLYPDQTHFDSCAQTPPAPTPNGFCIDFSPENSDFGRKNSCKKAD
Take B6: the binding entry is given as “binds”.

B7: Protein LYRIC (protein, UniProt Q80WJ7 1-579)
chain: MAARSWQDELAQQAEEGSARLRELLSVGLGFLRTELGLDLGLEPKRYPGWVILVGTGALGLLLLFLLGYGWAAACAGARKKRRSPPRKREEAAPPTPAPDDLAQLKNLRSEEQKKKNRKKLPEKPKPNGRTVEVPEDEVVRNPRSITAKQAPETDKKNEKSKKNKKKSKSDAKAVQNSSRHDGKEVDEGAWETKISHREKRQQRKRDKVLTDSGSLDSTIPGIENIITVTTEQLTTASFPVGSKKNKGDSHLNVQVSNFKSGKGDSTLQVSSRLNENLTVNGGGWSEKSVKLSSQLSEEKWNSVPPASAGKRKTEPSAWTQDTGDTNANGKDWGRNWSDRSIFSGIGSTAEPVSQSTTSDYQWDVSRNQPYIDDEWSGLNGLSSADPSSDWNAPAEEWGNWVDEDRASLLKSQEPISNDQKVSDDDKEKGEGALPTGKSKKKKKKKKKQGEDNSHTQDTEDLEKDTREELPVNTSKARPKQEKACSLKTMSTSDPAEVLIKNSQPVKTLPPAISAEPSITLSKGDSDNSSSQVPPMLQDTDKPKSNAKQNSVPPSQTKSETNWESPKQIKKKKKARRET
Turning to B7, the binding result is reported as “binds”.

B8: Ras and Rab interactor 1 (protein, UniProt Q921Q7 1-763)
chain: MEDPGETGAHPLGATNLNFVPGHQQKEKPSTDPLYDTPDTRGVQAGGSQQPARTVSLRERLLITRPVWLQLRANAAAALHVLRTEPPGTFLVRKSNTRQCQALCVRLPEASGPSFVSSHYIEESTGGVSLEGSELMFQDLVQLICGYCRTRAIHQAATHKELEAISHLGMEFWSSSLNTKDQQRPSEAPPIPRLKARSPQELDQGTGAALCFFNPLFPGDLGPTKREKFKRSFKVRVSTETSSPLSPPAVPPPPVPVLPGTSSSQTERLPPRQLLQRESSVGYRVPGSAASPCLPPLPSLQEVDCCSPSSSEEEGSSGSPTTSPRLSRPRHRRPLLRSMSSAFCSLLAPERQVGRAATMLMQNRYTAVGQLVQDLLTQVRAGPEPRELQGIRQALSRARAMLSAELGPEKLLPPERLELVLEKSLHRSVLKPLRPILAARLRRRLSADGSLGRLAEGFRLARTQGPGAFGSHLTLSSPVETEQVRQKLLQLLRAYSPSAQVKWLLQACKLLYTALKSQAGENAGADEFLPLLSLVLAQCDLPDLLLEAEYMSELLEPTLLTGEGGYYLTSLSASLALLSGLSQARALPLSPAQELQRSLALWEQRRLPATHSFQHLLRVAYQDPSTGCTSKTLAVPPGSSIATLSQLCATKFRVTQPDAFGLFLYKDQGYHRLPPEALAHRLPATGYLIYRRAERPETQGAVAEKAKTGSKGPEAGAWEEETGGLNREGKPRIAVDQEGKDQARGGHIGPEEQKAEGSQALEE
As to B8, the binding result is “binds”.

B9: Alpha-crystallin B chain (protein, UniProt P23927 1-175)
chain: MDIAIHHPWIRRPFFPFHSPSRLFDQFFGEHLLESDLFSTATSLSPFYLRPPSFLRAPSWIDTGLSEMRLEKDRFSVNLDVKHFSPEELKVKVLGDVIEVHGKHEERQDEHGFISREFHRKYRIPADVDPLTITSSLSSDGVLTVNGPRKQVSGPERTIPITREEKPAVAAAPKK
Take B9: the binding result was “binds”.
